Results from PubChem BioAssay AID504327 (National Center for Advancing Translational Sciences (NCATS), 2011).
In all, about 390,000 compounds went through this assay and about 820 (0.21%) were called active. The inconclusive results got no clear call from the source; some entries with a clear call stand among them for comparison. The call rests on the fitted dose curve; in most records, active means well fitted inhibition curve with a large enough effect; inconclusive means small, poorly fitted or top-dose-only effect, or another doubt; inactive means no such curve, though single readings can be large or run the other way. Potencies beside an inconclusive call are fits to weak or partial responses and may not hold up.

By UniProt entry, the sequences of proteins in these tests, tags left out.
UniProt Q92830, whole entry, looked up: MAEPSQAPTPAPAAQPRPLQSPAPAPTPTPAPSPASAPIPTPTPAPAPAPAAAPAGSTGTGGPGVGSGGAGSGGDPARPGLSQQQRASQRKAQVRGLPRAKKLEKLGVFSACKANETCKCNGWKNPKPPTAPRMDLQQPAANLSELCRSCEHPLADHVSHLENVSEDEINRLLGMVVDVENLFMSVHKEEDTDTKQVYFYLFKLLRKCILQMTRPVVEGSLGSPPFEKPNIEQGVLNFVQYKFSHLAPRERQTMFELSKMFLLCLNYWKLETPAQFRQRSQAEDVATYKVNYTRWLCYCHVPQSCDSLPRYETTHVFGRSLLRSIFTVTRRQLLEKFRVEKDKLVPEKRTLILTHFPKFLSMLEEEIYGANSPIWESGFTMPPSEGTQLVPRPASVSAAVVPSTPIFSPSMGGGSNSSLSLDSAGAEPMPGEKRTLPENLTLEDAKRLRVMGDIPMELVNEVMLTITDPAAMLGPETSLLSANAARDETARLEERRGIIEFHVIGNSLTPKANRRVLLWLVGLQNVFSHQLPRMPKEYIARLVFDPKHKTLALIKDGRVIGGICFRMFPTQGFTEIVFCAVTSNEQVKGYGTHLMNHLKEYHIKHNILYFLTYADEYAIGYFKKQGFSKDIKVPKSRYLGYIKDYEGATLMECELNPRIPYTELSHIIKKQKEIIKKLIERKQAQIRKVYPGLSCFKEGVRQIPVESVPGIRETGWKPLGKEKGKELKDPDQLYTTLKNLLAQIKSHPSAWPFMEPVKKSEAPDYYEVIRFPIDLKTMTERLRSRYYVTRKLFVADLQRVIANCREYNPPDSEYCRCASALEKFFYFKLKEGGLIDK

Target: Histone acetyltransferase KAT2A (Homo sapiens) (UniProt Q92830)
Assay: qHTS Assay for Inhibitors of GCN5L2
Conditions: GCN5L2 HAT assay, ThioGlo1 CoA-SH fluorescence; series mostly up to 58.9 µM
Procedure, shortened: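 Enzyme at 20nM final was mixed with library compounds for 15 min at room temperature. Peptide H3(1-25) at 75uM, acetyl-CoA at 70uM and ThioGlo1 at 50uM were then added. Plates were read immediately and after 20 min (Ex340nm/Em540nm).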
Potency means the concentration at half of the fitted maximal effect.

| Compound | Potency |
| --- | --- |
| CCN(C(=O)COC(=O)c1ccccc1Nc1cccc(C)c1C)C1CCS(=O)(=O)C1 (centres undefined) | inconclusive: 0.891 µM [inhibitor, full curve, poor fit] |
| CCCc1ccc(/C=C2\C(=O)c3ccccc3C(O)=C2C(=O)OCC)cc1 | inconclusive: 35.5 µM [inhibitor, single point] |
| CCOC(=O)O[C@]1(C(=O)OCCl)CC[C@@H]2[C@H]3CCC4=CC(=O)C=C[C@]4(C)[C@@H]3[C@@H](O)C[C@@]21C | inconclusive: 31.6 µM [inhibitor, single point] |
| COc1ccc(-c2c(NC(=O)c3ccco3)oc3ccccc3c2=O)cc1OC | inconclusive: 39.8 µM [inhibitor, single point] |
| Cc1cccc(-c2noc(CN(C)C(=O)COc3ccccc3)n2)c1 | inconclusive: 22.4 µM [inhibitor, single point] |
| Oc1ccccc1-c1nnc(-c2ccc(C(F)(F)F)cc2)o1 | inconclusive: 35.5 µM [inhibitor, single point] |
| Cc1cc(C(=O)CSc2nnc(-c3cccnc3)n2-c2ccccc2F)c(C)n1CC1CCCO1 (centres undefined) | inactive |
| CC(=O)c1c(C)[nH]c(C(=O)COc2ccc3ccc(=O)oc3c2)c1C | inactive |
| O=C(CSc1nc2nn(-c3ccccc3)c(=O)c-2c2n1CCCCC2)c1ccc(O)c(O)c1 | inconclusive: 25.1 µM [inhibitor, single point] |
| CCCc1cc(=O)oc2c(CN(CC)CC)c(O)c(Cl)cc12 | inconclusive: 35.5 µM [inhibitor, single point] |
| O=[N+]([O-])c1ccc(Sc2nc3ccccc3o2)c([N+](=O)[O-])c1 | inactive |
| N=c1oc2ccccc2cc1-c1nc(-c2ccccc2)cs1 | inconclusive: 39.8 µM [inhibitor, single point] |
| CN(C)N1C(N)=C(C#N)C(c2ccsc2)C2=C1CCCC2=O (centres undefined) | inactive |
| O=C(COC(=O)C1CCC1)Nc1cc(S(=O)(=O)N2CCCCC2)ccc1Cl | inconclusive: 20 µM [inhibitor, partial curve] |
| CSc1ccc(/C=N/n2c(COc3ccccc3)n[nH]c2=S)cc1 | inconclusive: 31.6 µM [inhibitor, single point] |
| O=C(Nc1cc2c3c(c1)C1CCCC1CN3CC1CCCC21)c1ccccc1 (centres undefined) | inconclusive: 35.5 µM [inhibitor, single point] |
| CCOc1ccc(C(C)(O)CN2CCOCC2)cc1 (centres undefined) | inconclusive: 0.891 µM [inhibitor, single point] |
| Cc1ccc2nc(Nc3ccc(F)cc3)c3nncn3c2c1 | inconclusive: 35.5 µM [inhibitor, single point] |
| CCOC(=O)c1c(NC(=O)c2noc3c2CC(C(C)(C)C)CC3)sc2c1CCCC2 (centres undefined) | inconclusive: 25.1 µM [inhibitor, single point] |
| O=C(c1cccs1)N1CCN(Cc2cccnc2)CC1 | inactive |
| COc1cccc(N(CC(=O)Nc2cccc(C(C)=O)c2)S(C)(=O)=O)c1 | inconclusive: 39.8 µM [inhibitor, single point] |
| Cc1cc(C)n(Cc2cccc(C(=O)N/N=C/c3cccnc3)c2)n1 | inconclusive: 5.01 µM [inhibitor, full curve, poor fit] |
| Brc1ccc(-c2csc(NC3=NCCCCC3)n2)cc1 | inconclusive: 25.1 µM [inhibitor, single point] |

| Compound | Potency |
| --- | --- |
| Cn1cc(CCC(=O)NC2CC(C)(C)Cc3c2cnn3-c2ccc(F)cc2)cn1 (centres undefined) | inconclusive: 5.01 µM [inhibitor, full curve, poor fit] |
| O=C(CCCn1c(=O)c2cccn2c2cccnc21)NCCc1ccc(Cl)cc1 | inconclusive: 5.62 µM [inhibitor, full curve, poor fit] |
| COc1cccc(CN2CCCC(C(=O)c3ccc4c(c3)OCO4)C2)c1OC (centres undefined) | inconclusive: 8.91 µM [inhibitor, single point] |
| O=C(O)Cn1c(P(=O)(O)c2ccccc2)nc2ccccc21 | inactive |
| CC1=C(/C=C/C(C)=C/C=C/C(C)=C/C=C/C=C(C)/C=C/C=C(C)/C=C/C2=C(C)C(=O)CCC2(C)C)C(C)(C)CCC1=O | inconclusive: 35.5 µM [inhibitor, single point] |
| CCC(Oc1ccccc1)C(=O)Nc1ccc(O)c(-c2nc3cc(C)ccc3o2)c1 (centres undefined) | inconclusive: 35.5 µM [inhibitor, single point] |
| O=C1C(=Cc2cccn2-c2ccccc2)C(=O)c2ccccc21 | inactive |
| NNC(=O)c1cccn(Cc2ccc(Cl)cc2Cl)c1=O | inconclusive: 0.141 µM [inhibitor, full curve, poor fit] |
| COc1cccc(NC(=O)CCS(=O)(=O)c2ccc3c(c2)oc(=O)n3C)c1 | inconclusive: 0.631 µM [inhibitor, full curve, poor fit] |
| CCCC(=O)Nc1nc2c(C)c(Cl)ccc2s1 | inconclusive: 39.8 µM [inhibitor, single point] |
| CN1CCCN(c2ccc([N+](=O)[O-])cc2)CC1 | inconclusive: 39.8 µM [inhibitor, single point] |
| Cc1cc(S(=O)(=O)N2CCCCC2)ccc1OCC(=O)N1CCCC1 | inconclusive: 3.55 µM [inhibitor, full curve] |
| CCCn1c(SCc2nc(-c3ccccc3C)no2)nnc1-c1ccc(Cl)cc1 | inactive |
| Cc1ccc2nc(Cl)c(/C=C/C(=O)c3ccco3)cc2c1 | inactive |
| O=C(Nc1nnc(CCN2CCOCC2)s1)C1CCCCC1 | inconclusive: 1 µM [inhibitor, full curve, poor fit] |
| COc1ccc(CCNS(=O)(=O)c2ccc([N+](=O)[O-])cc2)cc1OC | inactive |
| Cc1ccc(/C=C/c2onc(C)c2S(=O)(=O)N2CCC(C(=O)NC(C)(C)C)CC2)cc1 | inconclusive: 0.631 µM [inhibitor, single point] |
| O=C(N/N=C/c1cccc(Oc2ccccc2)c1)c1ccc(O)cc1O | inconclusive: 0.631 µM [inhibitor, full curve] |
| NC(=O)CC(O)c1cccc(Cl)c1 (centres undefined) | inactive |
| Cc1cccc(NCCNc2cccc(C)c2)c1 | inconclusive: 0.891 µM [inhibitor, single point] |
| O=C1CC(c2cccc([N+](=O)[O-])c2)c2ccc3ccccc3c2N1 (centres undefined) | inactive |
| COc1ccc(-n2c(C)cc(C(=O)CSc3ccc(NC(C)=O)cc3)c2C)cc1 | inactive |
| CCOc1ccc(NS(=O)(=O)c2ccc(C(=O)N3CCCC3)cc2)cc1 | inconclusive: 39.8 µM [inhibitor, single point] |

| Compound | Potency |
| --- | --- |
| O=C(COc1ccc(F)cc1)Nc1nc2c(s1)CCCC2 | inconclusive: 39.8 µM [inhibitor, single point] |
| O=C(NC(=S)N1CCCCC1c1cccnc1)c1ccccc1 (centres undefined) | inconclusive: 39.8 µM [inhibitor, single point] |
| O=S(=O)(c1ccc(Br)cc1)c1nc(-c2ccccc2)oc1NCc1cccnc1 | inconclusive: 39.8 µM [inhibitor, single point] |
| COc1ccc(Cl)cc1Nc1nnc(-c2ccncc2)s1 | inconclusive: 2.24 µM [inhibitor, partial curve] |
| Cn1cc(CC(=O)N2CCN(c3ccc(Cl)cc3)CC2)c2ccccc21 | inactive |
| O=S(=O)(c1ccc(Br)cc1)N1CCN(c2cc(-c3ccccc3)nc3ncnn23)CC1 | inconclusive: 7.08 µM [inhibitor, single point] |
| Cc1ccc(-n2cc(-c3ccccc3)c3c(NC4CCCC4)ncnc32)cc1 | inactive |
| Cc1ccc([C@@H]2CC=C(C(=O)O)[C@H](c3ccc(Cl)cc3)N2S(=O)(=O)c2ccc(C)cc2)cc1 | inconclusive: 39.8 µM [inhibitor, single point] |
| CCCCN(c1ccccc1)S(=O)(=O)c1ccc2c(c1)CCN2C(=O)CCC(=O)O | inactive |
| CCC1CSC(=Nc2ccc(C)cc2)N1C(=O)CN1C(=O)NC2(CCCC2)C1=O (centres undefined) | inconclusive: 0.794 µM [inhibitor, full curve, poor fit] |
| C=C(C)CSc1cc(C)c(C#N)c2nc3ccccc3n12 | inconclusive: 31.6 µM [inhibitor, partial curve] |
| Cc1cc(C)c2c(CC(=O)Nc3ccc(S(=O)(=O)N4CCCC(C)C4)cc3)coc2c1 (centres undefined) | inactive |
| O=C1CSC(=S)N1/N=C/c1ccc(O)c([N+](=O)[O-])c1 | inconclusive: 35.5 µM [inhibitor, single point] |
| CCN1C(=O)/C(=C/c2ccc(OCc3ccc(C(=O)O)cc3)c(Cl)c2)NC1=S | inactive |
| Fc1cccc2sc(Nc3nnc(-c4ccco4)o3)nc12 | inconclusive: 28.2 µM [inhibitor, single point] |
| COc1ccc(C(=O)OCC(=O)NCCCc2ccccc2)cc1[N+](=O)[O-] | inactive |
| C=CCN1C(=O)C(Cc2cccc(Cl)c2)S/C1=N/N=C/c1ccco1 (centres undefined) | inconclusive: 39.8 µM [inhibitor, single point] |
| OCCNc1nc2ccccc2[nH]1 | inconclusive: 0.708 µM [inhibitor, full curve, poor fit] |
| CCCCCC(=O)NC(=S)NNC(=O)CC | inactive |
| O=C(CN1CCN(C(=O)c2ccco2)CC1)Nc1c2c(nc3c1CCC3)CCCC2 | inactive |
| CC(NC(=O)Cn1nc(-c2ccccc2)c2ccccc2c1=O)c1ccccc1 (centres undefined) | inactive |
| Cc1c(C)c2c(OCC(=O)N[C@@H](Cc3ccccc3)C(=O)O)cc3c(c2oc1=O)CCC(C)(C)O3 | inconclusive: 12.6 µM [inhibitor, partial curve] |
| COc1ccc(C2C(=O)N(C3CCCCC3)CC(=O)N2C2CCCC2)cc1 (centres undefined) | inactive |

Ordered by length of the SMILES (smallest number first): part of the list above

| Compound | Potency |
| --- | --- |
| OCCNc1nc2ccccc2[nH]1 | inconclusive: 0.708 µM [inhibitor, full curve, poor fit] |
| CCCCCC(=O)NC(=S)NNC(=O)CC | inactive |
| COc1ccc(Cl)cc1Nc1nnc(-c2ccncc2)s1 | inconclusive: 2.24 µM [inhibitor, partial curve] |
| Fc1cccc2sc(Nc3nnc(-c4ccco4)o3)nc12 | inconclusive: 28.2 µM [inhibitor, single point] |
| C=C(C)CSc1cc(C)c(C#N)c2nc3ccccc3n12 | inconclusive: 31.6 µM [inhibitor, partial curve] |
| O=C1CSC(=S)N1/N=C/c1ccc(O)c([N+](=O)[O-])c1 | inconclusive: 35.5 µM [inhibitor, single point] |
| Cn1cc(CC(=O)N2CCN(c3ccc(Cl)cc3)CC2)c2ccccc21 | inactive |
| COc1ccc(C2C(=O)N(C3CCCCC3)CC(=O)N2C2CCCC2)cc1 (centres undefined) | inactive |
| Cc1ccc(-n2cc(-c3ccccc3)c3c(NC4CCCC4)ncnc32)cc1 | inactive |
| COc1ccc(C(=O)OCC(=O)NCCCc2ccccc2)cc1[N+](=O)[O-] | inactive |
| O=S(=O)(c1ccc(Br)cc1)c1nc(-c2ccccc2)oc1NCc1cccnc1 | inconclusive: 39.8 µM [inhibitor, single point] |
| O=C(CN1CCN(C(=O)c2ccco2)CC1)Nc1c2c(nc3c1CCC3)CCCC2 | inactive |
| CCC1CSC(=Nc2ccc(C)cc2)N1C(=O)CN1C(=O)NC2(CCCC2)C1=O (centres undefined) | inconclusive: 0.794 µM [inhibitor, full curve, poor fit] |
| CCCCN(c1ccccc1)S(=O)(=O)c1ccc2c(c1)CCN2C(=O)CCC(=O)O | inactive |
| CCN1C(=O)/C(=C/c2ccc(OCc3ccc(C(=O)O)cc3)c(Cl)c2)NC1=S | inactive |
| O=S(=O)(c1ccc(Br)cc1)N1CCN(c2cc(-c3ccccc3)nc3ncnn23)CC1 | inconclusive: 7.08 µM [inhibitor, single point] |
| Cc1cc(C)c2c(CC(=O)Nc3ccc(S(=O)(=O)N4CCCC(C)C4)cc3)coc2c1 (centres undefined) | inactive |
| Cc1c(C)c2c(OCC(=O)N[C@@H](Cc3ccccc3)C(=O)O)cc3c(c2oc1=O)CCC(C)(C)O3 | inconclusive: 12.6 µM [inhibitor, partial curve] |
| Cc1ccc([C@@H]2CC=C(C(=O)O)[C@H](c3ccc(Cl)cc3)N2S(=O)(=O)c2ccc(C)cc2)cc1 | inconclusive: 39.8 µM [inhibitor, single point] |

Looked up above:
For Potency, `O=C(NC(=S)N1CCCCC1c1cccnc1)c1ccccc1` (centres undefined) is listed with inconclusive: 39.8 µM [inhibitor, single point]
For Potency, `Cc1c(C)c2c(OCC(=O)N[C@@H](Cc3ccccc3)C(=O)O)cc3c(c2oc1=O)CCC(C)(C)O3` is listed with inconclusive: 12.6 µM [inhibitor, partial curve]
